No constants are given. Whether binding was seen depends on the method and setting. Binding seen in cells or lysates may run through a third protein. A yes stands for co-enrichment or nearness to the bait. Other partners may have been found.

Sequences of proteins named here, by UniProt entry; tags and fusion partners are left off.
UniProt P0CB38: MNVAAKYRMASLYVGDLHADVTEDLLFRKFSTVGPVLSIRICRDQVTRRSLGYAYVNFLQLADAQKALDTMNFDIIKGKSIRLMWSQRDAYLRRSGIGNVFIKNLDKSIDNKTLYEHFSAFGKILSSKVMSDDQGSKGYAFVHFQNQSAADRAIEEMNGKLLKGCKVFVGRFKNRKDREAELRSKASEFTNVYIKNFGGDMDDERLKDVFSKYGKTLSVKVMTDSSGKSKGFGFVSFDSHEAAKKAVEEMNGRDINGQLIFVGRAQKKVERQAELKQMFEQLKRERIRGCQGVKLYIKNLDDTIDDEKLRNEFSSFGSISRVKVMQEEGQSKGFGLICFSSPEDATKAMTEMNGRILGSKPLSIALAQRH
UniProt Q7Z739: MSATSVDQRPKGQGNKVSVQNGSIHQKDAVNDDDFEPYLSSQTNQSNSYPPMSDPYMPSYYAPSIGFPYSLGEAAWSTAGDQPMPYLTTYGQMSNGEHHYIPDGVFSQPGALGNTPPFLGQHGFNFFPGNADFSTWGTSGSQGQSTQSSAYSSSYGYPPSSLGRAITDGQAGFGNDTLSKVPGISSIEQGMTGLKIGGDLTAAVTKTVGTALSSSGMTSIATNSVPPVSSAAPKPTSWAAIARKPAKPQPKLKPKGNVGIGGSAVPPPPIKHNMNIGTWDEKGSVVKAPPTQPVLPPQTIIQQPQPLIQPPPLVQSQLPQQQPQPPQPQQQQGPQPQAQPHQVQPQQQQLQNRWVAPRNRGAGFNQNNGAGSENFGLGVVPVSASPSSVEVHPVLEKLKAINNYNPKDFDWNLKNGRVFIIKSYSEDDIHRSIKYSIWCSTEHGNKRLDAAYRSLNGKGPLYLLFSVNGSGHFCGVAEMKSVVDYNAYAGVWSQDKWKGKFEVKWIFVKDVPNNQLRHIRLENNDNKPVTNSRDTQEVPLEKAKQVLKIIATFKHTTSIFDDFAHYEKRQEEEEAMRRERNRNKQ
UniProt P52701: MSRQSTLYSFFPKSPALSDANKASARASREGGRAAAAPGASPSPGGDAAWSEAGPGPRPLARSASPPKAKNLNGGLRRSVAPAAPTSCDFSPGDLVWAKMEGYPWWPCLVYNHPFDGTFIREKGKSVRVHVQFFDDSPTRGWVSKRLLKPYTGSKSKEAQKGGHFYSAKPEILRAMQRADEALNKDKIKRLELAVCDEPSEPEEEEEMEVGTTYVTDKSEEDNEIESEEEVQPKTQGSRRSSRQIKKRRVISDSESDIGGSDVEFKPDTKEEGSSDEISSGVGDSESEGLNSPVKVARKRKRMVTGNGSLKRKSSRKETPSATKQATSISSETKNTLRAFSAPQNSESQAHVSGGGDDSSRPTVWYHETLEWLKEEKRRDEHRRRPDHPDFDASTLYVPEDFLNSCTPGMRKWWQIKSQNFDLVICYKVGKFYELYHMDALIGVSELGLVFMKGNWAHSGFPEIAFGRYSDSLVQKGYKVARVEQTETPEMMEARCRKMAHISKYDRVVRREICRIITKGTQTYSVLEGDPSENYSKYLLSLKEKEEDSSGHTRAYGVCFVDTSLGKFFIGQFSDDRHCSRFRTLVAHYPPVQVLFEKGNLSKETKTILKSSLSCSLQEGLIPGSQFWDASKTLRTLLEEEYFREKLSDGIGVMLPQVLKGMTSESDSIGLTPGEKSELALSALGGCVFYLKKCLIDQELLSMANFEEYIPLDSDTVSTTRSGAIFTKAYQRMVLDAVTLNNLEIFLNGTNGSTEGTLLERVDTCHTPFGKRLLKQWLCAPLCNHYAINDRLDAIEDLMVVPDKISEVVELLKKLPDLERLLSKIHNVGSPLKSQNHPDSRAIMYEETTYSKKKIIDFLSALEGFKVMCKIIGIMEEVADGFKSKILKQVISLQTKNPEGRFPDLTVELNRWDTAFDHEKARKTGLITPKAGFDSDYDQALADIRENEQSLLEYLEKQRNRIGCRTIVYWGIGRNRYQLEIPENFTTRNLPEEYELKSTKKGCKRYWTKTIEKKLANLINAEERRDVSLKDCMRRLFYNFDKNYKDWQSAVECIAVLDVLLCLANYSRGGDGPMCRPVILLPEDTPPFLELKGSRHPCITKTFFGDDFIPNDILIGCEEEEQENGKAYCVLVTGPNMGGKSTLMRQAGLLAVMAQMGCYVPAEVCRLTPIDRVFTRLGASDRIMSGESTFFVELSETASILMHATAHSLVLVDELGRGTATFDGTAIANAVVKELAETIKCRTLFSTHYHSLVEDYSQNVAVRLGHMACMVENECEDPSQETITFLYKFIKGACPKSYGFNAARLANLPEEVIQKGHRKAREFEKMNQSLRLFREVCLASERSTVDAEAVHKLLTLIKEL
UniProt Q52LJ0: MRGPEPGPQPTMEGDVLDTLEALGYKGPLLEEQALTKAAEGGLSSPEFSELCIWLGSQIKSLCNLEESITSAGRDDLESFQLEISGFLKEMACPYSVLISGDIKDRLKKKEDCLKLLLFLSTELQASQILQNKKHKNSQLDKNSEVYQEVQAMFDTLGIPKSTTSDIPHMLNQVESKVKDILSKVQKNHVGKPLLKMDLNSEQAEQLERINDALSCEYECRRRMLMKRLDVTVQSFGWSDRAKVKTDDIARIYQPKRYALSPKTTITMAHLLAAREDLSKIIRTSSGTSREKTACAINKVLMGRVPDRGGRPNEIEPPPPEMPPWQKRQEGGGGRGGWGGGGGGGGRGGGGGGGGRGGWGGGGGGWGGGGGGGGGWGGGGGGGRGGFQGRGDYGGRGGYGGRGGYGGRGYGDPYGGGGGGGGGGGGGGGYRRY
UniProt Q99729: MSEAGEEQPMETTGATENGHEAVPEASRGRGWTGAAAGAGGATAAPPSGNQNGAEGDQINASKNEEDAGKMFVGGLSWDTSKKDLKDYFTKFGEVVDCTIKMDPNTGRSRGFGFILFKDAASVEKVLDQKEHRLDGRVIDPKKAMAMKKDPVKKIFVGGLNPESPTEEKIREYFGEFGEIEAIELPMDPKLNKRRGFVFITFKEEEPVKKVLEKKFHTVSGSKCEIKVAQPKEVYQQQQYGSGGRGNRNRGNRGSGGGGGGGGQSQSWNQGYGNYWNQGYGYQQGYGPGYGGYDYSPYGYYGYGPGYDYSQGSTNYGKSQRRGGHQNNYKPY
UniProt O75340: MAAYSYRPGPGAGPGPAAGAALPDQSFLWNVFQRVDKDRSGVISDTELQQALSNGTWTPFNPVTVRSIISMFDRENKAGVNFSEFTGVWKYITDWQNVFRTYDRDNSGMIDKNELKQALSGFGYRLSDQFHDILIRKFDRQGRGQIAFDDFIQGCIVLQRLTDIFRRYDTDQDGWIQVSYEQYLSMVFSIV
UniProt Q7Z2W4: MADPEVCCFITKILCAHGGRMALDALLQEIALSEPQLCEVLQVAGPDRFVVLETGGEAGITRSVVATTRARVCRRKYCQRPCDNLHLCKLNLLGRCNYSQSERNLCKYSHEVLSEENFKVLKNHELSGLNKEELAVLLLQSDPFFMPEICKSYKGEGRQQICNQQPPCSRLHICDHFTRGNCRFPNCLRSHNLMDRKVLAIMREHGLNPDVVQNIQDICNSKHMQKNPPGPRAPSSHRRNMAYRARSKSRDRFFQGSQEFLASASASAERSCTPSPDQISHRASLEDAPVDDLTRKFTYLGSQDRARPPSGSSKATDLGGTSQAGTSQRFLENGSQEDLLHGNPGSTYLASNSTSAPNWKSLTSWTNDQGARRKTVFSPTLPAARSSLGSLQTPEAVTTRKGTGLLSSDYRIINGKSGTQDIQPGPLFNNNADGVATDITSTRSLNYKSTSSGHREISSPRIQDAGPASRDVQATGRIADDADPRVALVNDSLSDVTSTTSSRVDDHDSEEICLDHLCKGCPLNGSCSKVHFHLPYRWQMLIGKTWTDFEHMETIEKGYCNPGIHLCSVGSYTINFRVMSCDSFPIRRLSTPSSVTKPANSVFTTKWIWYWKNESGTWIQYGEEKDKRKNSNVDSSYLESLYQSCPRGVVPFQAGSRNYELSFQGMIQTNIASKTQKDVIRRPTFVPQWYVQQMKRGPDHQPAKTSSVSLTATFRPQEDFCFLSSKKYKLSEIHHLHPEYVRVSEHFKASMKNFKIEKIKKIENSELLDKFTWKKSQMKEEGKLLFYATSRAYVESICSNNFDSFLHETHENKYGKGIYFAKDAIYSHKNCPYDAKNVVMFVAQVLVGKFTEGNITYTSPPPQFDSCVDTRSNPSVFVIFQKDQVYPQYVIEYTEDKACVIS
UniProt P11940: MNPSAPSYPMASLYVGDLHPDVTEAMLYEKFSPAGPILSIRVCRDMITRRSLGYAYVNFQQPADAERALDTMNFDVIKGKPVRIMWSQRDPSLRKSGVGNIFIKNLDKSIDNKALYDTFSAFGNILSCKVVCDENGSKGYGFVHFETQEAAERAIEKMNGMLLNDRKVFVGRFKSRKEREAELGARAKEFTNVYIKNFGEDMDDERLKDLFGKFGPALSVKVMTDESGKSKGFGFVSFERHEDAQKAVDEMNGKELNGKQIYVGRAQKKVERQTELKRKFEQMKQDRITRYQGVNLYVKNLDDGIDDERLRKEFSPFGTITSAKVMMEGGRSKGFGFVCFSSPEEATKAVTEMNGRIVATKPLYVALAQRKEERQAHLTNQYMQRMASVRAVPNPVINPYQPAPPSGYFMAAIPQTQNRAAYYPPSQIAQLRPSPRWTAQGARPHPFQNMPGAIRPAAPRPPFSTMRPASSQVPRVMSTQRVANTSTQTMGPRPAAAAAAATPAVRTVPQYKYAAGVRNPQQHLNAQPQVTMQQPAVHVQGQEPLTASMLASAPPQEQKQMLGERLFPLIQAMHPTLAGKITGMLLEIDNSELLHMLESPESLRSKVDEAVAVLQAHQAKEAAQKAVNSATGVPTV
UniProt Q14157: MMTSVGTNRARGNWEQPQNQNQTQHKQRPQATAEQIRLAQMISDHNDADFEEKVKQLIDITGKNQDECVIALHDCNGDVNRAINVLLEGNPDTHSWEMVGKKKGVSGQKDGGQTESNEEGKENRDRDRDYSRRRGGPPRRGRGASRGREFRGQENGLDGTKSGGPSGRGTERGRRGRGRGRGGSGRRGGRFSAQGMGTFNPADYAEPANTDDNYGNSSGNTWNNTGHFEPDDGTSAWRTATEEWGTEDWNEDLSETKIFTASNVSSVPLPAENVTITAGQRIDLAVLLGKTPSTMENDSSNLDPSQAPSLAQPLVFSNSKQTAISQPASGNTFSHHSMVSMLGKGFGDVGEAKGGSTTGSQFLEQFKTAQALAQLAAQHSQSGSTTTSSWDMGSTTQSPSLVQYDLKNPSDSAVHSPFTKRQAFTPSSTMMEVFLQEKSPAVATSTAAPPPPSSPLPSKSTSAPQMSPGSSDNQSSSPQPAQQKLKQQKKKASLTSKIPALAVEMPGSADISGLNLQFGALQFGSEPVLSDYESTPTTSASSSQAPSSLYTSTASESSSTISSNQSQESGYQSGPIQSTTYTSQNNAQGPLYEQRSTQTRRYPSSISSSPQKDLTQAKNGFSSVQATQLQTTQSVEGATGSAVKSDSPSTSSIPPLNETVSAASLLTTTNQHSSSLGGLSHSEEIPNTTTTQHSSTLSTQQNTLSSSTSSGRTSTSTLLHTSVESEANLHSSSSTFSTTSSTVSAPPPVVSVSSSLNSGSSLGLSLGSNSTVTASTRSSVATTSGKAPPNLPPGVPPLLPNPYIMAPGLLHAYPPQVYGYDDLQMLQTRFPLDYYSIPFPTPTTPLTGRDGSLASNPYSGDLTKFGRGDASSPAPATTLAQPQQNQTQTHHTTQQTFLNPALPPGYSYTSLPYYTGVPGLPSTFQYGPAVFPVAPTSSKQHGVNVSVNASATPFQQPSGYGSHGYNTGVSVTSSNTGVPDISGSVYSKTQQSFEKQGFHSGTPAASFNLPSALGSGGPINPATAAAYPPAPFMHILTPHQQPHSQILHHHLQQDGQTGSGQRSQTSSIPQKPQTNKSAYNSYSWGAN

B1: EDC4 (protein, UniProt Q6P2E9 1-1401)
chain: MASCASIDIEDATQHLRDILKLDRPAGGPSAESPRPSSAYNGDLNGLLVPDPLCSGDSTSANKTGLRTMPPINLQEKQVICLSGDDSSTCIGILAKEVEIVASSDSSISSKARGSNKVKIQPVAKYDWEQKYYYGNLIAVSNSFLAYAIRAANNGSAMVRVISVSTSERTLLKGFTGSVADLAFAHLNSPQLACLDEAGNLFVWRLALVNGKIQEEILVHIRQPEGTPLNHFRRIIWCPFIPEESEDCCEESSPTVALLHEDRAEVWDLDMLRSSHSTWPVDVSQIKQGFIVVKGHSTCLSEGALSPDGTVLATASHDGYVKFWQIYIEGQDEPRCLHEWKPHDGRPLSCLLFCDNHKKQDPDVPFWRFLITGADQNRELKMWCTVSWTCLQTIRFSPDIFSSVSVPPSLKVCLDLSAEYLILSDVQRKVLYVMELLQNQEEGHACFSSISEFLLTHPVLSFGIQVVSRCRLRHTEVLPAEEENDSLGADGTHGAGAMESAAGVLIKLFCVHTKALQDVQIRFQPQLNPDVVAPLPTHTAHEDFTFGESRPELGSEGLGSAAHGSQPDLRRIVELPAPADFLSLSSETKPKLMTPDAFMTPSASLQQITASPSSSSSGSSSSSSSSSSSLTAVSAMSSTSAVDPSLTRPPEELTLSPKLQLDGSLTMSSSGSLQASPRGLLPGLLPAPADKLTPKGPGQVPTATSALSLELQEVEPLGLPQASPSRTRSPDVISSASTALSQDIPEIASEALSRGFGSSAPEGLEPDSMASAASALHLLSPRPRPGPELGPQLGLDGGPGDGDRHNTPSLLEAALTQEASTPDSQVWPTAPDITRETCSTLAESPRNGLQEKHKSLAFHRPPYHLLQQRDSQDASAEQSDHDDEVASLASASGGFGTKVPAPRLPAKDWKTKGSPRTSPKLKRKSKKDDGDAAMGSRLTEHQVAEPPEDWPALIWQQQRELAELRHSQEELLQRLCTQLEGLQSTVTGHVERALETRHEQEQRRLERALAEGQQRGGQLQEQLTQQLSQALSSAVAGRLERSIRDEIKKTVPPCVSRSLEPMAGQLSNSVATKLTAVEGSMKENISKLLKSKNLTDAIARAAADTLQGPMQAAYREAFQSVVLPAFEKSCQAMFQQINDSFRLGTQEYLQQLESHMKSRKAREQEAREPVLAQLRGLVSTLQSATEQMAATVAGSVRAEVQHQLHVAVGSLQESILAQVQRIVKGEVSVALKEQQAAVTSSIMQAMRSAAGTPVPSAHLDCQAQQAHILQLLQQGHLNQAFQQALTAADLNLVLYVCETVDPAQVFGQPPCPLSQPVLLSLIQQLASDLGTRTDLKLSYLEEAVMHLDHSDPITRDHMGSVMAQVRQKLFQFLQAEPHNSLGKAARRLSLMLHGLVTPSLP
B2: ANXA7 (protein, UniProt P20073 1-488)
chain: MSYPGYPPTGYPPFPGYPPAGQESSFPPSGQYPYPSGFPPMGGGAYPQVPSSGYPGAGGYPAPGGYPAPGGYPGAPQPGGAPSYPGVPPGQGFGVPPGGAGFSGYPQPPSQSYGGGPAQVPLPGGFPGGQMPSQYPGGQPTYPSQINTDSFSSYPVFSPVSLDYSSEPATVTQVTQGTIRPAANFDAIRDAEILRKAMKGFGTDEQAIVDVVANRSNDQRQKIKAAFKTSYGKDLIKDLKSELSGNMEELILALFMPPTYYDAWSLRKAMQGAGTQERVLIEILCTRTNQEIREIVRCYQSEFGRDLEKDIRSDTSGHFERLLVSMCQGNRDENQSINHQMAQEDAQRLYQAGEGRLGTDESCFNMILATRSFPQLRATMEAYSRMANRDLLSSVSREFSGYVESGLKTILQCALNRPAFFAERLYYAMKGAGTDDSTLVRIVVTRSEIDLVQIKQMFAQMYQKTLGTMIAGDTSGDYRRLLLAIVGQ
B3: HNRNPDL (protein, UniProt O14979 1-420)
chain: MEVPPRLSHVPPPLFPSAPATLASRSLSHWRPRPPRQLAPLLPSLAPSSARQGARRAQRHVTAQQPSRLAGGAAIKGGRRRRPDLFRRHFKSSSIQRSAAAAAATRTARQHPPADSSVTMEDMNEYSNIEEFAEGSKINASKNQQDDGKMFIGGLSWDTSKKDLTEYLSRFGEVVDCTIKTDPVTGRSRGFGFVLFKDAASVDKVLELKEHKLDGKLIDPKRAKALKGKEPPKKVFVGGLSPDTSEEQIKEYFGAFGEIENIELPMDTKTNERRGFCFITYTDEEPVKKLLESRYHQIGSGKCEIKVAQPKEVYRQQQQQQKGGRGAAAGGRGGTRGRGRGQGQNWNQGFNNYYDQGYGNYNSAYGGDQNYSGYGGYDYTGYNYGNYGYGQGYADYSGQQSTYGKASRGGGNHQNNYQPY
B4: UBAP2 (protein, UniProt Q5T6F2 1-1119)
chain: MMTSVSSDHCRGAREKPQISAAQSTQPQKQVVQATAEQMRLAQVIFDKNDSDFEAKVKQLMEVTGKNQDECIVALHDCNGDVNKAINILLEGNSDTTSWETVGCKKKNFAKENSENKENREKKSEKESSRGRGNNNRKGRGGNRGREFRGEENGIDCNQVDKPSDRGKRARGRGFGRGRGRGAGRFSTQGMGTFNPADYSDSTSTDVCGTKLVVWEAAQNGADEGTELASNTHNIAQDLSNKSSYGLKGAWKNSVEEWTTEDWTEDLSETKVFTASSAPAENHILPGQSIDLVALLQKPVPHSQASEANSFETSQQQGFGQALVFTNSQHNNQMAPGTGSSTAVNSCSPQSLSSVLGSGFGELAPPKMANITSSQILDQLKAPSLGQFTTTPSTQQNSTSHPTTTTSWDLKPPTSQSSVLSHLDFKSQPEPSPVLSQLSQRQQHQSQAVTVPPPGLESFPSQAKLRESTPGDSPSTVNKLLQLPSTTIENISVSVHQPQPKHIKLAKRRIPPASKIPASAVEMPGSADVTGLNVQFGALEFGSEPSLSEFGSAPSSENSNQIPISLYSKSLSEPLNTSLSMTSAVQNSTYTTSVITSCSLTSSSLNSASPVAMSSSYDQSSVHNRIPYQSPVSSSESAPGTIMNGHGGGRSQQTLDTPKTTGPPSALPSVSSLPSTTSCTALLPSTSQHTGDLTSSPLSQLSSSLSSHQSSLSAHAALSSSTSHTHASVESASSHQSSATFSTAATSVSSSASSGASLSSSMNTANSLCLGGTPASASSSSSRAAPLVTSGKAPPNLPQGVPPLLHNQYLVGPGGLLPAYPIYGYDELQMLQSRLPVDYYGIPFAAPTALASRDGSLANNPYPGDVTKFGRGDSASPAPATTPAQPQQSQSQTHHTAQQPFVNPALPPGYSYTGLPYYTGMPSAFQYGPTMFVPPASAKQHGVNLSTPTPPFQQASGYGQHGYSTGYDDLTQGTAAGDYSKGGYAGSSQAPNKSAGSGPGKGVSVSSSTTGLPDMTGSVYNKTQTFDKQGFHAGTPPPFSLPSVLGSTGPLASGAAPGYAPPPFLHILPAHQQPHSQLLHHHLPQDAQSGSGQRSQPSSLQPKSQASKPAYGNSPYWTN
B5: RCTB (protein, UniProt Q9Y3I0 1-505)
chain: MSRSYNDELQFLEKINKNCWRIKKGFVPNMQVEGVFYVNDALEKLMFEELRNACRGGGVGGFLPAMKQIGNVAALPGIVHRSIGLPDVHSGYGFAIGNMAAFDMNDPEAVVSPGGVGFDINCGVRLLRTNLDESDVQPVKEQLAQAMFDHIPVGVGSKGVIPMNAKDLEEALEMGVDWSLREGYAWAEDKEHCEEYGRMLQADPNKVSARAKKRGLPQLGTLGAGNHYAEIQVVDEIFNEYAAKKMGIDHKGQVCVMIHSGSRGLGHQVATDALVAMEKAMKRDKIIVNDRQLACARIASPEGQDYLKGMAAAGNYAWVNRSSMTFLTRQAFAKVFNTTPDDLDLHVIYDVSHNIAKVEQHVVDGKERTLLVHRKGSTRAFPPHHPLIAVDYQLTGQPVLIGGTMGTCSYVLTGTEQGMTETFGTTCHGAGRALSRAKSRRNLDFQDVLDKLADMGIAIRVASPKLVMEEAPESYKNVTDVVNTCHDAGISKKAIKLRPIAVIKG
B6: C14ORF166 (protein, UniProt Q9Y224 1-244)
chain: MFRRKLTALDYHNPAGFNCKDETEFRNFIVWLEDQKIRHYKIEDRGNLRNIHSSDWPKFFEKYLRDVNCPFKIQDRQEAIDWLLGLAVRLEYGDNAEKYKDLVPDNSKTADNATKNAEPLINLDVNNPDFKAGVMALANLLQIQRHDDYLVMLKAIRILVQERLTQDAVAKANQTKEGLPVALDKHILGFDTGDAVLNEAAQILRLLHIEELRELQTKINEAIVAVQAIIADPKTDHRLGKVGR
B7: HNRNPH3 (protein, UniProt P31942 1-346)
chain: MDWVMKHNGPNDASDGTVRLRGLPFGCSKEEIVQFFQGLEIVPNGITLTMDYQGRSTGEAFVQFASKEIAENALGKHKERIGHRYIEIFRSSRSEIKGFYDPPRRLLGQRPGPYDRPIGGRGGYYGAGRGSMYDRMRRGGDGYDGGYGGFDDYGGYNNYGYGNDGFDDRMRDGRGMGGHGYGGAGDASSGFHGGHFVHMRGLPFRATENDIANFFSPLNPIRVHIDIGADGRATGEADVEFVTHEDAVAAMSKDKNNMQHRYIELFLNSTPGGGSGMGGSGMGGYGRDGMDNQGGYGSVGRMGMGNNYSGGYGTPDGLGGYGRGGGGSGGYYGQGGMSGGGWRGMY
B8: PEF1 (protein, UniProt Q9UBV8 1-284)
chain: MASYPYRQGCPGAAGQAPGAPPGSYYPGPPNSGGQYGSGLPPGGGYGGPAPGGPYGPPAGGGPYGHPNPGMFPSGTPGGPYGGAAPGGPYGQPPPSSYGAQQPGLYGQGGAPPNVDPEAYSWFQSVDSDHSGYISMKELKQALVNCNWSSFNDETCLMMINMFDKTKSGRIDVYGFSALWKFIQQWKNLFQQYDRDRSGSISYTELQQALSQMGYNLSPQFTQLLVSRYCPRSANPAMQLDRFIQVCTQLQVLTEAFREKDTAVQGNIRLSFEDFVTMTASRML
B9: TIA1 (protein, UniProt P31483 1-386)
chain: MEDEMPKTLYVGNLSRDVTEALILQLFSQIGPCKNCKMIMDTAGNDPYCFVEFHEHRHAAAALAAMNGRKIMGKEVKVNWATTPSSQKKDTSSSTVVSTQRSQDHFHVFVGDLSPEITTEDIKAAFAPFGRISDARVVKDMATGKSKGYGFVSFFNKWDAENAIQQMGGQWLGGRQIRTNWATRKPPAPKSTYESNTKQLSYDEVVNQSSPSNCTVYCGGVTSGLTEQLMRQTFSPFGQIMEIRVFPDKGYSFVRFNSHESAAHAIVSVNGTTIEGHVVKCYWGKETLDMINPVQQQNQIGYPQPYGQWGQWYGNAQQIGQYMPNGWQVPAYGMYGQAWNQQGFNQTQSSAPWMGPNYGVQPPQGQNGSMLPNQPSGYRVAGYETQ

The target of the assay is G3BP1-APEX2-GFP (human (endogenous in HEK293T)) (UniProt Q13283). The experiment in a line: proximity labelling.
On to PABPC4L (from UniProt P0CB38 1-370), for which the binding result was “binds”.

In the case of YTHDF3 (from UniProt Q7Z739 1-585), the binding result is “binds”. Consider MSH6 (from UniProt P52701 1-1360), for which the binding result is given as “binds”. On to FAM98B (from UniProt Q52LJ0 1-433), for which the binding result is “binds”. The result for HNRNPAB (from UniProt Q99729 1-332) reads “binds”; that for PDCD6 (from UniProt O75340 1-191), “binds”; that for XRN1 (from UniProt Q8IZH2 1-1706), “binds”. Take ZC3HAV1 (from UniProt Q7Z2W4 1-902): the binding entry is given as “binds”. Take PABPC1 (from UniProt P11940 1-636): the binding result is “binds”. In the case of FAM98A (from UniProt Q8NCA5 1-518), the binding result is given as “binds”.

Consider UBAP2L (from UniProt Q14157 1-1087), for which the binding entry was “binds”.

Regarding B1, the binding entry was “binds”.

As for B2, the binding result is given as “binds”. On to B3, for which the binding entry is recorded as “binds”. With B4, the binding result is recorded as “binds”. On to B5, for which the binding entry is given as “binds”. In the case of B6, the binding entry is on record as “binds”.

As to B7, the binding entry is reported as “binds”. Next, B8: “binds”; B9: “binds”.
